Results are given in words; binding and its absence hold for the method and conditions named. Binding seen in cells or lysates may run through a third protein. Some binding calls cover weakened binding; strength is not graded here. For some of these results: Sequences can lack the tags named with a protein.

For three molecules, binding results are on record in article PMC13095444, “Discovery of RGS2-FBXO44 interaction inhibitors using a cell-based NanoBit assay” (Molecular Pharmacology, 2025).

One experiment addresses T1, RGS2-LgBiT (UniProt P41220).
T1 sequence: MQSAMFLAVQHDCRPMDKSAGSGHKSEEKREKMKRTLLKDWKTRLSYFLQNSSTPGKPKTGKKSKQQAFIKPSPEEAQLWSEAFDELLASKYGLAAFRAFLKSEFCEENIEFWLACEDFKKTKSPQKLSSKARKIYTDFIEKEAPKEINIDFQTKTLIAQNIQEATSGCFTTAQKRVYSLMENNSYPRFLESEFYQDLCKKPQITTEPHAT
The experiment can be described thus: split reporter; NanoBiT luminescence in live, transiently transfected HEK-293T cells; every combination of RGS2 and FBXO44 NanoBiT constructs; 15,000 cells/well, 2 hours incubation.

Experiment [1] has as its target T2, RGS2-HA (UniProt P41220).
T2 sequence: T1 sequence
Put plainly: co-IP; as a3 but with 100 uM compound 10 (results: cells treated overnight, 16-18 hours; methods: lysates incubated 30 minutes at 4 °C); precipitation with anti-HA, western blot for FLAG. On the technique in general: In western blotting, separated proteins are transferred to a membrane and probed.

For experiment [2], the target named is T2, RGS2-HA. The experiment can be described thus: co-IP; HEK-293T cells transfected with RGS2-HA and FLAG-FBXO44, vehicle (DMSO); lysis in RIPA buffer, precipitation with rabbit anti-HA antibody and protein A agarose at 4 °C overnight, western blot for FLAG.
The next experiment addresses T3, RGS2-SmBiT (UniProt P41220 1-211).
T3 construct: Regulator of G protein signaling 2 (RGS2); cloned in-house into pBiT2.3-C[CMV/SmBiT/Blast]; The linker between RGS2 and SmBiT is not described; In the BiBiT construct RGS2-SmBiT and LgBiT-FBXO44 are expressed from one plasmid with a bidirectional CMV promoter; also called C-terminally tagged RGS2; source: HEK-293T, transiently transfected, in live cells; not shown: SmBiT, C-terminal, kept
T3 sequence (looked up): T1 sequence
Put plainly: split reporter; NanoBiT luminescence in live stable HEK-293T cells (BiBiT dual-expression vector, single clone #6), 384-well plates, Nano-Glo Live Cell Substrate in HBSS, 20 minutes at room temperature, normalised to viability; compared with nontransfected HEK-293T cells; used for treatment with library compounds (100 uM or 500-0.01 uM, 16-18 hours).

B1: SmBiT-FBXO44 (protein, UniProt Q9H4M3 1-255)
chain: MAVGNINELPENILLELFTHVPARQLLLNCRLVCSLWRDLIDLVTLWKRKCLREGFITEDWDQPVADWKIFYFLRSLHRNLLHNPCAEEGFEFWSLDVNGGDEWKVEDLSRDQRKEFPNDQVKKYFVTSYYTCLKSQVVDLKAEGYWEELMDTTRPDIEVKDWFAARPDCGSKYQLCVQLLSSAHAPLGTFQPDPATIQQKSDAKWREVSHTFSNYPPGVRYIWFQHGGVDTHYWAGWYGPRVTNSSITIGPPLP
Take B1: the binding result with RGS2-LgBiT is on record as “binds”.

B2: FLAG-FBXO44 (protein, UniProt Q9H4M3 1-255)
chain: B1 chain
Take B2: the figures for the binding entry in the experiment with RGS2-HA [1] and in the experiment with RGS2-HA [2] were “binds weakly” and “binds”, respectively.

B3: LgBiT-FBXO44 (natural protein, UniProt Q9H4M3 1-255, looked up)
chain: B1 chain
notes: F-box Only Protein 44 (FBXO44); cloned in-house into pBiT1.3-N[CMV/LgBiT/Hygro]; The linker between LgBiT and FBXO44 is not described; also called N-terminally tagged FBXO44; source: HEK-293T, transiently transfected, in live cells; not shown: LgBiT, N-terminal, kept
For the molecule B3, the binding entry with RGS2-SmBiT is reported as “binds”.
